Data on four molecules can be found in patent US20220324934A1 (Stanford University, published 2022).

This test has as its target T1, IL-2Rβ (UniProt P14784 27-240, limits assumed, biotinylated (site not stated)).
T1 construct: also called CD122; IL-2Rbeta
T1 sequence (looked up): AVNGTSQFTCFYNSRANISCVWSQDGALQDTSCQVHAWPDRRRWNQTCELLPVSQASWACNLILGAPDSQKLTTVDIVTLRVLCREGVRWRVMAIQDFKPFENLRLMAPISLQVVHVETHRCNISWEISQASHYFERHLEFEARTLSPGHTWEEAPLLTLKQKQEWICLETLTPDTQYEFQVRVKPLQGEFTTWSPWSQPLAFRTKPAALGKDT
The test can be described thus: SPR Biacore.

Where a chain is given by its changes, count along the chain named. Results are given in words; binding and its absence hold for the method and conditions named. Some results given as binding are weak or reduced against the parent protein; the word gives no strength. Tags and fused reporters may be left off the sequences shown.

B1: in silico designed IL-2 variant SEQ ID NO: 1, MSA fusion protein (ligand, not shown: large carriers; small tags and cut ends)
chain: APTSSSTKKTQLQLEHLLLDLQMILNMLNNYDNPKLTRLLTFKFYMPKKATSLKHLQCLEEELKPLEEALNAAGDDPKTIRDVVSNINVFVLELKGSETTFMCEYADETATIIEFLNRWITFCQSIISTLT
For the molecule B1, the binding result is listed as “binds”.

B2: in silico designed IL-2 variant SEQ ID NO: 6, MSA fusion protein (ligand, not shown: large carriers; small tags and cut ends)
chain: B1 chain with D32E, L39M, A72Q, V83L, V84I, F90I
Regarding B2, the binding entry is recorded as “binds”.

B3: in silico designed IL-2 variant SEQ ID NO: 8, MSA fusion protein (ligand, not shown: large carriers; small tags and cut ends)
chain: B1 chain with G74D, D75S, D76T, P77D, K78E, T79R
As for B3, the binding entry is on record as “binds”.

B4: in silico designed IL-2 variant SEQ ID NO: 7, MSA fusion protein (ligand, not shown: large carriers; small tags and cut ends)
chain: APTSSSTKKTQLQLEHLLLDLQMILNMLNNYDNPKLTRMLTFKFYMPKKATELKHLQCLEEELKPLEEALNQADSTDETVRDLISNINVIVLELKGSETTFMCEYADETATIIEFLNRWITFCQSIISTLT
As to B4, the binding result is listed as “binds”.
